# Reference: PubChem BioAssay AID2685 (National Center for Advancing Translational Sciences (NCATS), 2010)
# The list shows a part of the results. The main result of the screen is listed elsewhere. These columns were measured beside it and carry no call. The list favours compounds with an active or inconclusive main result. Potencies come from curve fits of mixed quality, noted in brackets.
# Experiment: qHTS Assay for Lipid Storage Modulators in Drosophila S3 Cells;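 for cell number change: cells counted by Cell Tracker Red CMTPX staining in the red channel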
# Conditions: BODIPY lipid droplet fluorescence, 18-24 h; for cell number change: measured here: cell count max response, cells fed with added oleic acid
# Method in brief: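 Laser-scanning cytometry quantifies lipid droplet accumulation (500–530 nm total intensity; droplet/cell object ratio) in oleic acid-fed (400 uM added) Drosophila S3 cells treated with a concentration series. 20 uM Triacsin C defined 100% inhibition.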
# [1] = measured here: cell number channel AC50, cells fed with added oleic acid
# [2] = measured here: lipid fluorescence (Fed channel) AC50, cells fed with added oleic acid
structure (smiles),measurement,setting,value
C/C(=N\O)C(C)(C)Nc1ccc(Br)cc1,cell number change,,18.1%
CCOc1ccc(NC(=O)N(CCN(C)C)C(C)c2ccncc2)cc1 (stereo unspecified),cell number change,,19.1%
O=C(Nc1ccccn1)NC1CCS(=O)(=O)C1 (stereo unspecified),cell number change,,-23.3%
same,AC50,[1],"3.66 µM [falling, partial curve]"
same,AC50,[2],"2.91 µM [falling, partial curve]"
Cc1cc(C(=O)Nc2ccccc2C(=O)O)c(C)o1,cell number change,,44.9%
CCOc1ccc(OCc2ccc(C(=O)N3CCCC3)o2)cc1,cell number change,,71.1%
same,AC50,[1],"5.8 µM [rising, full curve]"
COc1ccc(CC(=O)NC2CCSc3ccccc32)cc1OC (stereo unspecified),AC50,[1],"0.00411 µM [falling, full curve, poor fit]"
CC(C)c1ccc(NC2CCCN(C(=O)CN3CCOC3=O)C2)cc1 (stereo unspecified),cell number change,,41.6%
same,AC50,[1],"32.6 µM [rising, single point]"
same,AC50,[2],"14.6 µM [rising, partial curve, poor fit]"
O=C1/C(=C/c2ccc(F)cc2)SC(=S)N1Nc1ncc(C(F)(F)F)cc1Cl,cell number change,,-36.2%
same,AC50,[1],"29.1 µM [falling, single point]"
same,AC50,[2],"20.6 µM [falling, single point]"
COC(=O)c1ccc(COc2cc(C)ccc2C)o1,cell number change,,45.4%
same,AC50,[1],"1.3 µM [rising, full curve]"
S=C(NCc1cccs1)Nc1ccc(Br)cc1Cl,cell number change,,-32.5%
same,AC50,[2],"3.66 µM [falling, single point]"
Cc1cc(OCc2cc(C(=O)NC3CCC3)no2)cc(C)c1Cl,cell number change,,16.4%
CCc1ccc(NC(=O)c2cnn3ccccc23)cc1,cell number change,,-16%
CCc1cccc(NC(=O)c2snc3c(=O)[nH]cnc23)c1,cell number change,,26.6%
same,AC50,[1],"4.11 µM [rising, full curve, poor fit]"
same,AC50,[2],"0.461 µM [rising, single point]"
O=C(CS(=O)(=O)c1cn(CC(=O)N2CCCC2)c2ccccc12)Nc1ccccc1F,cell number change,,-18.8%
same,AC50,[1],"0.366 µM [rising, full curve]"
same,AC50,[2],"29.1 µM [rising, single point]"
CCOc1ccc(N(CC(=O)OC)S(=O)(=O)c2ccc3c(c2)n(C)c(=O)c(=O)n3C)cc1,cell number change,,-0.844%
same,AC50,[1],"0.651 µM [rising, full curve, poor fit]"
OCC[C@H]1C[C@@H](O)[C@H](O)[C@@]2(CCCc3ccccc3O2)O1,cell number change,,-10.3%
same,AC50,[2],"0.013 µM [rising, full curve, poor fit]"
Cc1cc(C)c(NC(=O)c2cccs2)c(C)c1NC(=O)c1cccs1,cell number change,,-38.1%
same,AC50,[1],"11.6 µM [falling, partial curve, poor fit]"
same,AC50,[2],"2.31 µM [falling, partial curve]"
COC(=O)C(CCSC)NC(=O)CNS(=O)(=O)c1ccc(F)cc1 (stereo unspecified),cell number change,,17.7%
same,AC50,[2],"0.206 µM [rising, full curve, poor fit]"
CC(=O)Nc1ccc(NC(=O)C(NS(=O)(=O)c2ccc3c(c2)OCCO3)C(C)C)cc1 (stereo unspecified),cell number change,,-2.57%
same,AC50,[2],"1.64 µM [falling, single point]"
O=C(C1CCOCC1)N1CCCC(N2CCN(c3cccc(Cl)c3)CC2)C1 (stereo unspecified),cell number change,,-2.36%
same,AC50,[2],"29.1 µM [rising, single point]"
CCN(CC)CCNC(=O)c1ccc(NC(=O)C2CC(=O)N(CCc3ccc(OC)c(OC)c3)C2)cc1 (stereo unspecified),cell number change,,-3.5%
same,AC50,[2],"13 µM [falling, single point]"
O=C(NCCCN1CCCCC1)c1ccc2c(c1)ncn2C1CCCC1,cell number change,,11.1%
same,AC50,[2],"29.1 µM [rising, single point]"
CC(=O)Nc1ccc(NCc2cccs2)cc1,cell number change,,-7.42%
CC(=O)c1ccc(N2CCN(CC(=O)NCc3ccccc3)CC2)cc1,cell number change,,28%
same,AC50,[2],"29.1 µM [rising, single point]"
CC1(C)OC(=O)C(=Cc2ccc(-c3ccc(Cl)c(C(=O)O)c3)o2)C(=O)O1,AC50,[2],"6.51 µM [rising, single point]"
CSC1=NCCN1S(=O)(=O)c1ccc(NC(C)=O)cc1,cell number change,,4.15%
Cc1ncsc1CCC(=O)N1CCCC(Nc2ccc(C(C)C)cc2)C1 (stereo unspecified),cell number change,,24%
same,AC50,[1],"2.59 µM [rising, full curve, poor fit]"
same,AC50,[2],"2.91 µM [rising, full curve]"
COCCn1cnnc1SCC(=O)Nc1cccc(S(=O)(=O)N2CCCCCC2)c1,cell number change,,4.83%
same,AC50,[2],"29.1 µM [falling, single point]"
O=C(COc1ccc2c(c1)oc(=O)c1ccccc12)N[C@@H](Cc1ccccc1)C(=O)O,cell number change,,23.3%
same,AC50,[1],"0.146 µM [rising, full curve, poor fit]"
same,AC50,[2],"29.1 µM [rising, single point]"
O=C(CCS(=O)(=O)c1ccc(Br)cc1)NCCc1ccc(Cl)cc1,cell number change,,12.4%
same,AC50,[2],"0.146 µM [rising, full curve, poor fit]"
Cc1ccc(S(=O)(=O)NCC(=O)N(CC(=O)NCC2CCCO2)C2CCCC2)cc1 (stereo unspecified),cell number change,,65.1%
same,AC50,[1],"20.6 µM [rising, single point]"
Cc1[nH][nH]c(=O)c1C(c1ccc(O)c([N+](=O)[O-])c1)c1c(C)[nH][nH]c1=O,cell number change,,10.4%
same,AC50,[2],"16.4 µM [falling, single point]"
COc1ccc(C2C(C#N)=C(C)NC3=C2C(=O)CC(C)(C)C3)c(OC)c1 (stereo unspecified),AC50,[2],"0.731 µM [falling, single point]"
Cc1cc(C)nc(Nc2ncc(O)n2-c2ccccc2)n1,cell number change,,14.2%
same,AC50,[2],"18.4 µM [rising, single point]"
CS(=O)(=O)c1ccc(Cl)c(C(=O)O)c1,cell number change,,-30.6%
same,AC50,[1],"0.231 µM [falling, full curve, poor fit]"
same,AC50,[2],"1.16 µM [falling, full curve]"
Cc1ccc(-c2cnc(-c3ccncc3)o2)cc1,cell number change,,-12.7%
same,AC50,[1],"0.82 µM [rising, single point]"
same,AC50,[2],"2.91 µM [rising, partial curve]"
CCOC(=O)[C@H]1[C@H]2COc3cc(OC)ccc3[C@@H]2N2C(=O)CN(Cc3ccco3)C(=O)[C@@]12C,cell number change,,12.7%
same,AC50,[2],"29.1 µM [rising, single point]"
CC1(C)CC(=O)C2=C(C1)OC(c1ccc(O)cc1)C(C#N)=C2N (stereo unspecified),cell number change,,-18.3%
same,AC50,[2],"29.1 µM [falling, single point]"

# In a second layout: results already given
structure (smiles)	measurement	setting	value
Cc1ccc(S(=O)(=O)NCC(=O)N(CC(=O)NCC2CCCO2)C2CCCC2)cc1 (stereo unspecified)	AC50	[1]	20.6 µM [rising, single point]
Cc1[nH][nH]c(=O)c1C(c1ccc(O)c([N+](=O)[O-])c1)c1c(C)[nH][nH]c1=O	cell number change		10.4%
same	AC50	[2]	16.4 µM [falling, single point]

# 2 records picked at random from those above:
structure (smiles),measurement,setting,value
CCOC(=O)[C@H]1[C@H]2COc3cc(OC)ccc3[C@@H]2N2C(=O)CN(Cc3ccco3)C(=O)[C@@]12C,AC50,[2],"29.1 µM [rising, single point]"
CCOc1ccc(NC(=O)N(CCN(C)C)C(C)c2ccncc2)cc1 (stereo unspecified),cell number change,,19.1%
